In PubChem BioAssay AID720591 (Broad Institute, 2013):
The whole screen tested about 1,200 compounds, of which about 60 (5%) were called active. Not shown: some 1% with an inconclusive outcome.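 Rule for the calls: active = Decreasing signal and fitted IC50 at most twice the top valid tested dose; inconclusive = Bad fit or a level curve showing 30 to 70% inhibition; inactive = the rest.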 This is one part of the list. Entries with a potency or affinity are not part of this list.

The chains behind the UniProt entries cited, without tags or fusion partners. Where a name states a change or a piece, a line headed by the entry shows the natural chain unless it says otherwise.
UniProt Q9NXA8: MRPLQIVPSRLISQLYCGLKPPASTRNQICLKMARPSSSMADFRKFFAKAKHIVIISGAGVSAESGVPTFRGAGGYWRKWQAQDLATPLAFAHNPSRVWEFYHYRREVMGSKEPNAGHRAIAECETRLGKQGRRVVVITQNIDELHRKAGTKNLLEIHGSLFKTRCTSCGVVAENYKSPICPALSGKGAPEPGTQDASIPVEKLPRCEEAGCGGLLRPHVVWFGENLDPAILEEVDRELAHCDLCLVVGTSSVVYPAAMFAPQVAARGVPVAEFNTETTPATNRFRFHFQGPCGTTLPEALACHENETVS

These molecules were tested against NAD-dependent protein deacylase sirtuin-5, mitochondrial (Homo sapiens) (UniProt Q9NXA8) (assay: SIRT5 desuccinylase inhibitors, dose response, biochemical, fluorescence imaging, cherry-pick, set 5 (AID 720591;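 note: 0% = median of neutral control wells and -100% = median of positive control wells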)). Conditions: Purified SirT5, succinyl-peptide AMC, trypsin-coupled fluorescence; at 15 µM (top of the series) unless noted.

Row | Compound | activity change, negative = inhibition
1 | O=C(NCc1ccncc1)c1nc(-c2ccc(C(F)(F)F)cc2)no1 | inactive: -5.2%
2 | CC(C)OC(=O)c1cccc(C(=O)O)n1 | inactive: -29.2%
3 | COc1ccc(CNC(=O)CCn2ccc3cc(S(=O)(=O)N4CCCC4)ccc32)cc1 | inactive: -22.9%
4 | Cc1ccccc1CNC(=O)Cn1ccc2cc(S(=O)(=O)N3CCCCCC3)ccc21 | inactive: 4.05%
5 | O=S(=O)(Nc1ncccn1)c1ccc(Cl)cc1 | inactive: 17.2%
6 | O=C(CSc1nnc(-c2ccco2)n1-c1ccccc1)NCCc1ccccc1 | inactive: 35.8%
7 | O=S(=O)(NCc1ccc2c(c1)OCO2)c1ccccc1F | inactive: 4.96%
8 | COCCNC(=O)C(c1ccc(F)cc1)N(Cc1ccco1)C(=O)CCC(=O)Nc1ccccn1 (stereo not given) | inactive: 4.45%
9 | O=C(c1cc(COc2ccc(F)cc2Cl)on1)N1CC[C@@H]2CCCC[C@H]2C1 | inactive: -20.1%
10 | O=C(Nc1nc(-c2ccc(Cl)cc2Cl)cs1)c1ccc(OCC2CCCO2)cc1 (stereo not given) | inactive: 1.14%
11 | Cc1ccccc1C(=O)N1c2ccccc2OCC1C(C)(C)C (stereo not given) | inactive: -31.7%
12 | O=C(NNc1ccccc1C(F)(F)F)c1sccc1Br | inactive: -31.3%
13 | COc1ccccc1C(=O)NCCC(=O)Nc1ccc(OC(F)(F)F)cc1 | inactive: -3.84%
14 | Fc1ccc(CNC2CCN(Cc3ccccc3)CC2)cc1 | inactive: -18.3%
15 | O=C(Nc1ccccc1Cl)c1cccs1 | inactive: -20.1%
16 | Cc1ccc(CNc2nc(NC(C)C)nc3ccsc23)c(C)c1 | inactive: -0.124%
17 | Cn1c(SCc2nc(-c3ccc(Cl)cc3)no2)nnc1-c1cccs1 | inactive: -25.4%
18 | C#CC1(NC(=O)NC(C)C)CCCCC1 | inactive: 36.4%
19 | CN(C)CCCN(C(=O)c1ccco1)c1nc2ccc(F)cc2s1 | inactive: 42.9%
20 | CO/N=C(\C(=O)N[C@@H]1C(=O)N2C(C(=O)O)=C(COC(C)=O)CS[C@H]12)c1csc(N)n1 (stereo in doubt) | inactive: -15.9%
21 | O=S1(=O)CC(N2CCCC2)CN1Cc1cn(Cc2ccccc2)nn1 (stereo not given) | inactive: -2.42%
22 | Cn1ccnc1SC(C(=O)O)c1ccccc1 (stereo not given) | inactive: -10.4%
23 | O=C(Nc1ccccc1F)c1cc2c(s1)-c1ccccc1S(=O)(=O)C2 | inactive: -14.1%

Row | Compound | activity change, negative = inhibition
24 | Cc1sc(NC(=O)Cn2[nH]c(=O)c3ccccc3c2=O)nc1-c1ccccc1 | inactive: -2.7%
25 | C[C@H]1COc2cc(NCCO)ccc2S(=O)(=O)N1 | inactive: 19.8%
26 | CC(C)N1CCN(Cc2cnc(-c3ccccc3)s2)CC1CCO (stereo not given) | inactive: 35.2%
27 | Cn1cnnc1SCC(=O)Nc1ccc2ccccc2c1 | inactive: 2.92%
28 | O=C1CC(N2CCC(c3nc4ccccc4[nH]3)CC2)C(=O)N1c1ccccc1F (stereo not given) | inactive: 4.09%
29 | Cc1cc(C)c(NC(=O)C2CCN(C(=O)c3ccco3)CC2)c(C)c1 | inactive: -25.5%
30 | NC(=O)C1Cc2ccccc2CN1C(=O)c1cc(C2CC2)nn1-c1ccccc1 (stereo not given) | inactive: -10.6%
31 | CC(C)(C)NC(=O)C(c1ccccn1)N(C(=O)c1csnn1)C1CCCC1 (stereo not given) | inactive: -0.148%
32 | O=C(CSc1nnc(-c2ccco2)n1-c1ccccc1)NCc1ccco1 | inactive: 15.6%
33 | COCCCNC(=O)c1ccc(CN2CCc3ccccc3C2)cc1 | inactive: -25.4%
34 | CC1COc2ccccc2N1C(=O)c1ccc(F)cc1 (stereo not given) | inactive: 2.89%
35 | C=C(C)COc1ccc(-c2ncncc2-c2ccc(OC)cc2)c(O)c1 | inactive: 4.58%
36 | Cc1ccc(C(=O)NC2CCCc3c2cnn3-c2ccc(F)cc2F)cn1 (stereo not given) | inactive: 36.6%
37 | COc1ccc(-c2noc(Cn3cc(S(=O)(=O)N4CCCC4)ccc3=O)n2)cc1 | inactive: -33.5%
38 | CC(C)N(C(=O)[C@H]1C[C@H](CC(=O)NC(C)(C)C)C(=O)N2CCc3c([nH]c4cc(-c5ccco5)ccc34)[C@]12C)C(C)C | inactive: 9.87%
39 | CC(C)NC(=O)C(c1ccc(F)cc1)N(Cc1ccco1)C(=O)CCC(=O)Nc1ccccn1 (stereo not given) | inactive: 8.91%
40 | O=C(COC(=O)c1cc(=O)[nH]c2ccccc12)NC1CCCC1 | inactive: 19.9%
41 | Cc1oc2ccc(NS(=O)(=O)c3ccccc3)cc2c1C(=O)Nc1ccccc1 | inactive: 1.52%
42 | CC1CCCN(CCOCCSc2ccccc2)C1 (stereo not given) | inactive: 0.132%
43 | CCN(C[C@H]1N[C@@](C)(C(=O)OC)[C@H]2C(=O)N(C)C(=O)[C@@H]12)C(=O)c1ccc(F)cc1 | inactive: -17.1%
44 | Cc1cc(C)cc(NC(=O)CSc2ccc(-c3cccs3)nn2)c1 | inactive: 4.74%
45 | Cc1cc(CNC(=O)CC2C(=O)NCCN2Cc2ccccc2C(F)(F)F)on1 (stereo not given) | inactive: 4.9%
46 | COc1ccccc1CNS(=O)(=O)c1cccs1 | inactive: 2.11%

Row | Compound | activity change, negative = inhibition
47 | O=C(NCCc1ccccc1)C1c2ccccc2C(=O)N1Cc1cccs1 (stereo not given) | inactive: 10.5% [at 7.5 µM]
48 | Cc1ccc(S(=O)(=O)N2CCCCC2)cc1NC(=O)COC(=O)CN1C(=O)NC2(CC(C)CC(C)(C)C2)C1=O (stereo not given) | inactive: 0.355%
49 | COc1cc(Cl)c(CN2CCCC(CO)(Cc3ccccc3F)C2)cc1OC (stereo not given) | inactive: 8.36%
50 | Cn1ncc2c(Nc3cc(Cl)cc(Cl)c3)ncnc21 | inactive: -24.3%
51 | O=C(c1ccco1)N1CCCN(Cc2nc(-c3cccs3)no2)CC1 | inactive: 0.286%
52 | Cc1ccc(Cl)cc1N(C(=O)c1csnn1)C(C(=O)NC1CCCC1)c1ccco1 (stereo not given) | inactive: 16.8%
53 | Cc1ccc(S(=O)(=O)c2ccc(-n3nc(C)cc3N)cc2)cc1 | inactive: 2.99%
54 | COc1cc(C)c(CN2CCN(C(=O)CCC(=O)c3ccc(C)s3)CC2)cc1OC | inactive: 16.3%
55 | O=C(O)c1cc(N2C(=O)C3CCCCC3C2=O)ccc1NCc1cccnc1 (stereo not given) | inactive: 17.6%
56 | CCCNC(=O)C1(C)CCCN(C(=O)C2(c3ccc(Cl)cc3)CCCC2)C1 (stereo not given) | inactive: 14.6%
57 | COCCNC(=O)c1onc(CSc2cccc(OC)c2)c1C(=O)NCCOC | inactive: -16.5%
58 | CC1(C)N=C(N)NC(Nc2ccc(Cl)cc2)=N1 | inactive: 6.94%
59 | Cc1nc(-c2ccccc2)sc1C(=O)NS(=O)(=O)c1ccc(CN2CCN(c3ccccc3)CC2)cc1 | inactive: -16.5%
60 | CC(=O)c1ccc(OCCCC(=O)Nc2ccc3c(c2)OCCO3)cc1 | inactive: -29.6%
61 | O=C(NC1CCCC1)C(c1ccco1)N(C(=O)c1csnn1)c1ccccc1 (stereo not given) | inactive: -11.2%
62 | Cc1cccc(Cl)c1NC(=O)NCCCN1CCCCC1C (stereo not given) | inactive: -21.1%
63 | C[C@H]1CN([C@@H](C)CO)C(=O)c2cc(NC(=O)C3CCCCC3)ccc2O[C@H]1CN(C)Cc1ccc(-c2ccccc2)cc1 | inactive: -24.1%
64 | O=C1CCC(C(=O)N2CCCCCC2)CN1Cc1cccc(C(F)(F)F)c1 (stereo not given) | inactive: -29.3%
65 | O=C(Nc1ccccc1)C1CCN(C(=O)c2ccco2)CC1 | inactive: -31.6%
66 | CCn1cc(C(=O)OC)c(=O)c2cc(S(=O)(=O)N(C)C3CCCCC3)ccc21 | inactive: -15.6%
67 | FC(F)(F)c1ccc(Oc2ccc3ccccc3c2Br)nc1 | inactive: 24.9%
68 | C#CC1(NC(=O)N(C)C)CCCCC1 | inactive: -17.5%
69 | Cc1ccc(C(=O)NCC(=O)NCc2cc(=O)n(C)c(=O)n2C)cc1 | inactive: -29.1%

7 entries from above, ordered by formula weight, ascending.
Row | Compound | activity change, negative = inhibition
27 | Cn1cnnc1SCC(=O)Nc1ccc2ccccc2c1 | inactive: 2.92%
44 | Cc1cc(C)cc(NC(=O)CSc2ccc(-c3cccs3)nn2)c1 | inactive: 4.74%
28 | O=C1CC(N2CCC(c3nc4ccccc4[nH]3)CC2)C(=O)N1c1ccccc1F (stereo not given) | inactive: 4.09%
61 | O=C(NC1CCCC1)C(c1ccco1)N(C(=O)c1csnn1)c1ccccc1 (stereo not given) | inactive: -11.2%
3 | COc1ccc(CNC(=O)CCn2ccc3cc(S(=O)(=O)N4CCCC4)ccc32)cc1 | inactive: -22.9%
38 | CC(C)N(C(=O)[C@H]1C[C@H](CC(=O)NC(C)(C)C)C(=O)N2CCc3c([nH]c4cc(-c5ccco5)ccc34)[C@]12C)C(C)C | inactive: 9.87%
48 | Cc1ccc(S(=O)(=O)N2CCCCC2)cc1NC(=O)COC(=O)CN1C(=O)NC2(CC(C)CC(C)(C)C2)C1=O (stereo not given) | inactive: 0.355%

More entries:

Row | Compound | activity change, negative = inhibition
70 | O=C1CN(C(=O)COc2cccc(F)c2)c2ccccc2N1 | inactive: 3.25%
71 | C[C@@H]1CN([C@@H](C)CO)C(=O)CCCn2nncc2CO[C@H]1CN(C)C(=O)C1CCCCC1 | inactive: -4.24%
72 | Cc1sc2nc(N3CCOCC3)[nH]c(=O)c2c1-c1ccccc1 | inactive: -15.5%
73 | CCN1CCN(C(=O)CN(CC)S(=O)(=O)c2ccc3ccccc3c2)CC1 | inactive: -19%
74 | Clc1ccc(SCc2cn3ccccc3n2)cc1 | inactive: -21.3%
75 | Cc1ccc(CNC(=O)CNC(=O)[C@@H]2Cc3ccccc3CN2)cc1 | inactive: 9.5%
76 | Cc1ccc(-n2nc(C)c3c(C)cc(=O)[nH]c32)cc1 | inactive: 23%
77 | COc1ccc(S(=O)(=O)N2CCCCC2)cc1NC(=O)CNc1ccccc1N1CCCC1=O | inactive: -11.2%
78 | CN(C)CCOC(=O)NCC12CC3CC(CC(C3)C1)C2 | inactive: -14.8%
79 | Cc1cc(NC(=O)CCC(=O)N(Cc2ccc(F)cc2)C(C(=O)NC2CCCC2)c2ccco2)no1 (stereo not given) | inactive: 12.4%
80 | COc1ccc(CCN(Cc2cc3ccc(C)cc3n3nnnc23)C(C)=O)cc1OC | inactive: 11.4%
81 | O=C(CN1C(=O)NC2(CCCC2)C1=O)Nc1ccc(S(=O)(=O)N2CCOCC2)cc1 | inactive: 10.3%
82 | Cc1ccc(S(=O)(=O)N2C[C@H]3n4c(=O)ccc(=O)n4C[C@H](OC(=O)NCc4ccco4)[C@@]3(O)C2)cc1 | inactive: -5.38%
83 | CCCn1cc(S(=O)(=O)c2ccc(C)cc2)c(=O)c2cc(OC)c(OC)cc21 | inactive: 0.014%
84 | CC1=C(C(=O)N2CCOCC2)CC(CC(=O)NCC2CCCCC2)C(=O)N1CCC1=CCCCC1 (stereo not given) | inactive: 31.4%
85 | O=C(c1ccccc1)c1coc2ccc(O)c(Cl)c12 | inactive: -19.4%
86 | Cc1ccc(C(=O)NCCC(=O)N2CCC3(CC2)NCCc2[nH]cnc23)cc1C | inactive: -28.5%
87 | CC(C)(CO)CNC(=O)CCc1nnc(Cc2ccc(-c3ccccc3)cc2)o1 | inactive: -22.7%
88 | COc1ccc(CNC(=O)C(c2ccco2)N(C(=O)Cc2cccs2)c2cccnc2)cc1 (stereo not given) | inactive: 1.51%
89 | CCCCCNC(=O)C(c1cc2ccccc2o1)n1c(=O)c(-c2ccccc2)nc2ccccc21 (stereo not given) | inactive: -20.3%
90 | COc1ccccc1Cc1c(-c2cccc(Br)c2)nc2c(C)cc(Br)cn12 | inactive: 19.3%
